This is one part of the list.
What was measured:
Experiment in all cases: log2 fold change, soluble protein after heating vs DMSO (PISA); higher = thermal stabilisation; K562 lysate, 10 uM; active = over 0.2 and 3.5 SD of the protein, either way, in both replicates (recomputed)
crizotinib = compound: C[C@@H](Oc1cc(-c2cnn(C3CCNCC3)c2)cnc1N)c1c(Cl)ccc(F)c1Cl [crizotinib]
Method in brief: (§1)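 To prepare the extract, K562 pellets were dounce-homogenised in PBS pH 7.4 with 1 mM MgCl2, giving crude material at 1 mg/mL protein. This was treated with 10 μM compound for 30 min, then heated in aliquots for 3 min over 48°C-58°C before pooling and addition of NP-40 to 0.5% at 4°C. Centrifugation at 21,000xg for 90 min left soluble protein in the supernatant, which TMTpro 16plex LC-MS/MS quantified with equalised channel sums. Results are log-two fold changes in thermal stability compared with solvent controls, from duplicates.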

The chains behind the UniProt entries cited, without tags or fusion partners. Where a name states a change or a piece, a line headed by the entry shows the natural chain unless it says otherwise.
UniProt Q6ZU65, whole entry, looked up: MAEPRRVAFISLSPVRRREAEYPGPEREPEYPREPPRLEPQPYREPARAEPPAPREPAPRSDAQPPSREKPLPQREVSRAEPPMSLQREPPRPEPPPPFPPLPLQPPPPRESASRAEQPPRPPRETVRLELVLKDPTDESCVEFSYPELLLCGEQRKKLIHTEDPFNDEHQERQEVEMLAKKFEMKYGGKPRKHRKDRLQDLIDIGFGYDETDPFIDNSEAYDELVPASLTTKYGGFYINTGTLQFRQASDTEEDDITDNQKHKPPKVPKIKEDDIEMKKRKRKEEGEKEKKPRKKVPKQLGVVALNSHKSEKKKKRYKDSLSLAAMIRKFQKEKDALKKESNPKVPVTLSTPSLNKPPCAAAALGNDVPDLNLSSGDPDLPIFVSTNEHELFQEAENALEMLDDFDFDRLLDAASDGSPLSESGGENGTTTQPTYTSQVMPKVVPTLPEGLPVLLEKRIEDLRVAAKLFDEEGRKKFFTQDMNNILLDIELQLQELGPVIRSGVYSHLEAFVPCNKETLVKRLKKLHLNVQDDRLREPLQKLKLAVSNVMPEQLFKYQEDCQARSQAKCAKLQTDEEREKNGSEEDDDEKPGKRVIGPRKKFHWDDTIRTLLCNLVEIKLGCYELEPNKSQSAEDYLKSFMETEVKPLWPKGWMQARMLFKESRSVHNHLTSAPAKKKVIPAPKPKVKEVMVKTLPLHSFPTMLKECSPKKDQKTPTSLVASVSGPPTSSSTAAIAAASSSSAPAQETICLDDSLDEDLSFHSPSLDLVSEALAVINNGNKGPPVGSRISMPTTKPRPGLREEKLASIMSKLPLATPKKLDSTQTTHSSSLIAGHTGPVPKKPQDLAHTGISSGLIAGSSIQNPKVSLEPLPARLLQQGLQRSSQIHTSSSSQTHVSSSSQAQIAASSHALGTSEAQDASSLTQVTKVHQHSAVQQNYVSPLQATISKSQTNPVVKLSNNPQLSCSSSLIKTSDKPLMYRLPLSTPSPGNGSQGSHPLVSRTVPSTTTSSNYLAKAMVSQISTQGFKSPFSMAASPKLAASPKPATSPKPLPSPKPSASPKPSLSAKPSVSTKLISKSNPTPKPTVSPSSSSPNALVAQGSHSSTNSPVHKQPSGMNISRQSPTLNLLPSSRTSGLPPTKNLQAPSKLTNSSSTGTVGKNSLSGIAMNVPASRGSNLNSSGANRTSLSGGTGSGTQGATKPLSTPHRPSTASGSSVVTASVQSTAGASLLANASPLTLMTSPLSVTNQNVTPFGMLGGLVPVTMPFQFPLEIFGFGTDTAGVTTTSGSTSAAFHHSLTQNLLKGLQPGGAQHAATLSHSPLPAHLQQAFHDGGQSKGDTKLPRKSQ
UniProt P29597: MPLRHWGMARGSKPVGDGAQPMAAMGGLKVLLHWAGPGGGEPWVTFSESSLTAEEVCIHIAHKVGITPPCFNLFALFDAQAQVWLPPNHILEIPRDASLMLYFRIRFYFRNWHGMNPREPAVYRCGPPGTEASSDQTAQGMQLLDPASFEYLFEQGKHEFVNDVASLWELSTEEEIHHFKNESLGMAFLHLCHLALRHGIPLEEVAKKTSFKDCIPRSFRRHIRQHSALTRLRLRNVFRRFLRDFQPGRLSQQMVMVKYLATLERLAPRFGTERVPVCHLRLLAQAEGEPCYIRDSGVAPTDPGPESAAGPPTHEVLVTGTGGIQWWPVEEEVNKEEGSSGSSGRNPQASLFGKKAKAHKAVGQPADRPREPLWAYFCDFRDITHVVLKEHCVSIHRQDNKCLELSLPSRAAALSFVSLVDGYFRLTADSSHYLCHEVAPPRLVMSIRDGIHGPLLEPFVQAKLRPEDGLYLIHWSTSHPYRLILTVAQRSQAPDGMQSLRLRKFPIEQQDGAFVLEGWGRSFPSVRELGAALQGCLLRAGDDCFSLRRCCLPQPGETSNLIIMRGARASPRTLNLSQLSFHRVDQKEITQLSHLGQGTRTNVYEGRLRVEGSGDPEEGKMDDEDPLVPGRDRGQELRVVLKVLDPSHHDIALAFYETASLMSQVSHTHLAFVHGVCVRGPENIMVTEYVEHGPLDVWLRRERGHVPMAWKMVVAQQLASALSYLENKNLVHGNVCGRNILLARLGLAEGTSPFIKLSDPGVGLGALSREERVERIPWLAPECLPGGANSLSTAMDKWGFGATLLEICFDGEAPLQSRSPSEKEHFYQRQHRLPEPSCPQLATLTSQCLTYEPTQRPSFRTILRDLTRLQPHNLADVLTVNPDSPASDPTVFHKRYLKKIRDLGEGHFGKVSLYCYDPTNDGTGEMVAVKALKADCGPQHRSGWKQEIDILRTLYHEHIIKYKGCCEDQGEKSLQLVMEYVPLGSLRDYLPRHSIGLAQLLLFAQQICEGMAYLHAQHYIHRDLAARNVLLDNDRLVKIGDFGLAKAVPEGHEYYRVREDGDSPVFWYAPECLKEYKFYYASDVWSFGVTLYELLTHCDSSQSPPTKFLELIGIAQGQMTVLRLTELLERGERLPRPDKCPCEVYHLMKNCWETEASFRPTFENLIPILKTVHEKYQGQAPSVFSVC
UniProt O75386: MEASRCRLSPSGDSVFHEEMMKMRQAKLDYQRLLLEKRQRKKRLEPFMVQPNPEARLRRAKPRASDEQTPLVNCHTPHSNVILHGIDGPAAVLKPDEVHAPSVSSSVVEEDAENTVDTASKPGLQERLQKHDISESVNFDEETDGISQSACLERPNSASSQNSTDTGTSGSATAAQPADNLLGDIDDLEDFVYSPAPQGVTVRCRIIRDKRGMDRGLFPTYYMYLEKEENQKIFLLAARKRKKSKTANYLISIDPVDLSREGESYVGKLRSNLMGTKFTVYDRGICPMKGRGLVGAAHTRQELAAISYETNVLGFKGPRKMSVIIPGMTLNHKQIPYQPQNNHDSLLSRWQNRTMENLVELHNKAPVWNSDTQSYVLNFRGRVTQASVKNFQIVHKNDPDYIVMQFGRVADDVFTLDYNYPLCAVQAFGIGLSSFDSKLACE
UniProt Q9NNX1: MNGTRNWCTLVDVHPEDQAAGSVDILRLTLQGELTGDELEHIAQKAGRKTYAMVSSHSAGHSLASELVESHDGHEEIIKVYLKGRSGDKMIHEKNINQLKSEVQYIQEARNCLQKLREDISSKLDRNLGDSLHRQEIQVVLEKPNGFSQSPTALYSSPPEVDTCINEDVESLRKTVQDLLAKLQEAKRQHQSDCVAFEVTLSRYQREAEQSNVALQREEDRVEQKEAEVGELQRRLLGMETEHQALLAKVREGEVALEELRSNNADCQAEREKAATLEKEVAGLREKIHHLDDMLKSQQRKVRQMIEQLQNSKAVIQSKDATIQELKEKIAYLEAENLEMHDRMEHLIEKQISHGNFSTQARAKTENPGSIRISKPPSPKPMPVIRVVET
UniProt Q96ET8: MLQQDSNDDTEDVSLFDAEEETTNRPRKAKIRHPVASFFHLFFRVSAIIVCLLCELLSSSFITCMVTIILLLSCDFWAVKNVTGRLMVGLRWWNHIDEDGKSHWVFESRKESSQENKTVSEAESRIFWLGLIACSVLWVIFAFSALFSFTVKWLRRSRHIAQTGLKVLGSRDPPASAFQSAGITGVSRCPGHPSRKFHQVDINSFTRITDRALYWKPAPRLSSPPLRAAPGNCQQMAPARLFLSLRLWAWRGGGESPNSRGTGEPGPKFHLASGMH
UniProt Q9BZL1: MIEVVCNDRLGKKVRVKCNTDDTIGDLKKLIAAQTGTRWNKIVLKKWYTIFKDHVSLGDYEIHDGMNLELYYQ
UniProt Q9C0H2: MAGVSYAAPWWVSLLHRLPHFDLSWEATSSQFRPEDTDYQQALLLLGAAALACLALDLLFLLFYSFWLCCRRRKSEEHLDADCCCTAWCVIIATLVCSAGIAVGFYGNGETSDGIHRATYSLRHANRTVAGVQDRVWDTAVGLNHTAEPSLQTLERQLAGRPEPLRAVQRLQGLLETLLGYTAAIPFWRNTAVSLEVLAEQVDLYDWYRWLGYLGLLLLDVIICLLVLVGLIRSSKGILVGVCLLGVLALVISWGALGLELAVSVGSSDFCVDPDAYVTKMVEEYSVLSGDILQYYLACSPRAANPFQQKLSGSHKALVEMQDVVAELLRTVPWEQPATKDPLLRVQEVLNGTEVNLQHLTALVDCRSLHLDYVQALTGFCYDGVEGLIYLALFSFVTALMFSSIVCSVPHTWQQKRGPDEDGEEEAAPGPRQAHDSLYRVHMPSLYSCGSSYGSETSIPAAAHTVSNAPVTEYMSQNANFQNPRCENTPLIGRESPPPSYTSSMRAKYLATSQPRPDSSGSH
UniProt O00124: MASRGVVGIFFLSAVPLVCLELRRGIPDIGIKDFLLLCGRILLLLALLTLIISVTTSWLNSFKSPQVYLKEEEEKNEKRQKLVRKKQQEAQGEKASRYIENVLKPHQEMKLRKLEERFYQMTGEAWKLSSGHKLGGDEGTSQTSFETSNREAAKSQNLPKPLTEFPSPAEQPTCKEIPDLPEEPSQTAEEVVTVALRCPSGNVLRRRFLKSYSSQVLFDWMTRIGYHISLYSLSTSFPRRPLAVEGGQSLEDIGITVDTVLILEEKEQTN
UniProt Q8N2K1: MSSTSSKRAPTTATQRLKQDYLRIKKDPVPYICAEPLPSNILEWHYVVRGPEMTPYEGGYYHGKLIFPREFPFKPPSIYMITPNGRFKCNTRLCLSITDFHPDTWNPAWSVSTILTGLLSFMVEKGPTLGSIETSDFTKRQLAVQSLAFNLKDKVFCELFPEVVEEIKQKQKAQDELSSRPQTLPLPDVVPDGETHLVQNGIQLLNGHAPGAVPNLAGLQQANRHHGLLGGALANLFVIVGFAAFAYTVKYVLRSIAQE
UBE2L5, A0A1B0GUS4, UniProt A0A1B0GUS4, whole entry, looked up: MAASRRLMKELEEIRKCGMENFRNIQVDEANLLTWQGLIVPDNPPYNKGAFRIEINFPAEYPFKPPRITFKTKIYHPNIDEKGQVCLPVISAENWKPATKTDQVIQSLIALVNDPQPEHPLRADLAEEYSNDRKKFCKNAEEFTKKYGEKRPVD
UniProt Q14157: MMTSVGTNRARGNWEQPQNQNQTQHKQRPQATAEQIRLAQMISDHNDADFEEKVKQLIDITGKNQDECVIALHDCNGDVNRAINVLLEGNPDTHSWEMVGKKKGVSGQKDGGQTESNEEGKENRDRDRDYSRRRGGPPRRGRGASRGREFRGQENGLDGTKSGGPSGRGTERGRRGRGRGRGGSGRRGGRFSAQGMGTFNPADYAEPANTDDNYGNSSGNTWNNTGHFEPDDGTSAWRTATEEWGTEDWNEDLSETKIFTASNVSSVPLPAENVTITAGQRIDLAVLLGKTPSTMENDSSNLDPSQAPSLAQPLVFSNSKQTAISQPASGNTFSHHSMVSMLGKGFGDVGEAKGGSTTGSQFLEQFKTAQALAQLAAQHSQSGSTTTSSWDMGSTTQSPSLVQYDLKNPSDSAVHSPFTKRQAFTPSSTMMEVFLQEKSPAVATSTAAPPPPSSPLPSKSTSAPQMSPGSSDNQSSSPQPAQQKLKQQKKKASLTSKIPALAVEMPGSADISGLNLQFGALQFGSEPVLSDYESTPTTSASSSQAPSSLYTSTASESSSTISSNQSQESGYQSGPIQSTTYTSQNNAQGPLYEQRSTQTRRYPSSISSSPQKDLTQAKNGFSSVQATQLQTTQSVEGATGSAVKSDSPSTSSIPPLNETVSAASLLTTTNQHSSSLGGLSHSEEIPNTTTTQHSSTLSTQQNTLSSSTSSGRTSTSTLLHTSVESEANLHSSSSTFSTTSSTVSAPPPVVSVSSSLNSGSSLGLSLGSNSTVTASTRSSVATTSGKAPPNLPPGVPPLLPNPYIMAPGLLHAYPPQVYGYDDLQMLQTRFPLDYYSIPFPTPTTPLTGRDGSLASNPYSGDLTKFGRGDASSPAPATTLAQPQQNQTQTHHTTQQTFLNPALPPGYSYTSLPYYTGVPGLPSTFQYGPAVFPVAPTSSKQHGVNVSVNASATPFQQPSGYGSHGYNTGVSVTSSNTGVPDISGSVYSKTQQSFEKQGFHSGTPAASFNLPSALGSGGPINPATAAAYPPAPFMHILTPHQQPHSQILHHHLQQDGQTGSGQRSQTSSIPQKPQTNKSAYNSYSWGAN

duvelisib = compound: C[C@H](Nc1ncnc2nc[nH]c12)c1cc2cccc(Cl)c2c(=O)n1-c1ccccc1 [duvelisib]
Method in brief: as §1

tozasertib = compound: Cc1cc(Nc2cc(N3CCN(C)CC3)nc(Sc3ccc(NC(=O)C4CC4)cc3)n2)n[nH]1 [tozasertib]
Method in brief: as §1

doramapimod = compound: Cc1ccc(-n2nc(C(C)(C)C)cc2NC(=O)Nc2ccc(OCCN3CCOCC3)c3ccccc23)cc1 [doramapimod]
Method in brief: as §1

nilotinib = compound: Cc1cn(-c2cc(NC(=O)c3ccc(C)c(Nc4nccc(-c5cccnc5)n4)c3)cc(C(F)(F)F)c2)cn1 [nilotinib]
Method in brief: as §1

[1] = compound: Cc1nc(Nc2n[nH]c3c2CN(C(=O)N[C@H](CN(C)C)c2ccccc2)C3(C)C)c2sccc2n1
Method in brief: as §1

dasatinib = compound: Cc1nc(Nc2ncc(C(=O)Nc3c(C)cccc3Cl)s2)cc(N2CCN(CCO)CC2)n1 [dasatinib]
Method in brief: as §1

[2] = compound: Cc1ncc(-c2ccnc(Nc3ccc(S(C)(=O)=O)cc3)n2)n1C(C)C
Method in brief: as §1

[3] = compound: Cn1cc(-c2ccc3c(c2)CCN3C(=O)Cc2cccc(C(F)(F)F)c2)c2c(N)ncnc21
Method in brief: as §1

quisinostat = compound: Cn1cc(CNCC2CCN(c3ncc(C(=O)NO)cn3)CC2)c2ccccc21 [quisinostat]
Method in brief: as §1

tipifarnib = compound: Cn1cncc1[C@@](N)(c1ccc(Cl)cc1)c1ccc2c(c1)c(-c1cccc(Cl)c1)cc(=O)n2C [tipifarnib]
Method in brief: as §1

[4] = compound: NC(=O)Nc1cc(-c2cccc(F)c2)sc1C(=O)N[C@H]1CCCNC1
Method in brief: as §1

[5] = compound: NC1(c2ccc(-c3nc4ccn5c(=O)[nH]nc5c4cc3-c3ccccc3)cc2)CCC1
Method in brief: as §1

lapatinib = compound: CS(=O)(=O)CCNCc1ccc(-c2ccc3ncnc(Nc4ccc(OCc5cccc(F)c5)c(Cl)c4)c3c2)o1 [lapatinib]
Method in brief: as §1

[6] = compound: C[C@H](C1=CC=C(C=C1)C(=O)NC2=C3C=CNC3=NC=C2)N
Method in brief: as §1

gandotinib = compound: Cc1cc(Nc2cc(CN3CCOCC3)c3nc(C)c(Cc4ccc(Cl)cc4F)n3n2)n[nH]1 [gandotinib]
Method in brief: as §1

[7] = compound: Cc1cccc(CC(=O)N2CCc3c2ccc(-c2cn(C)c4ncnc(N)c24)c3F)n1
Method in brief: as §1

[8] = compound: NC(=O)c1cnc(N[C@@H]2CCCC[C@@H]2N)nc1Nc1cccc(-n2nccn2)c1
Method in brief: as §1

pictilisib = compound: CS(=O)(=O)N1CCN(Cc2cc3nc(-c4cccc5[nH]ncc45)nc(N4CCOCC4)c3s2)CC1 [pictilisib]
Method in brief: as §1

bafetinib = compound: Cc1ccc(NC(=O)c2ccc(CN3CC[C@H](N(C)C)C3)c(C(F)(F)F)c2)cc1Nc1nccc(-c2cncnc2)n1 [bafetinib]
Method in brief: as §1

Measured: log2 fold change

UBN2 (UniProt Q6ZU65)
inactive: crizotinib 0.035 | duvelisib -0.001 | tozasertib -0.123 | doramapimod 0.269 | nilotinib 0.284 | [1] 0.121 | dasatinib -0.002 | [2] -0.052 | [3] -0.005 | quisinostat 0.071 | tipifarnib 0.048 | [4] 0.025 | [5] 0.118

U2AF2 (UniProt K7ELP8)
inactive: lapatinib -0.134 | [6] -0.083 | gandotinib -0.072 | tozasertib 0.042 | [7] 0.001 | nilotinib -0.062 | [1] -0.01 | [2] -0.143 | tipifarnib 0.145 | [8] 0.058

UBR4 isoform 4 (UniProt Q5T4S7)
inactive: lapatinib 0.146 | duvelisib -0.143 | tozasertib 0.079 | dasatinib -0.083 | [3] -0.158 | [8] -0.078 | [5] 0.049

TYK2 (UniProt P29597)
inactive: crizotinib 0.082 | tozasertib -0.054 | doramapimod 0.086 | quisinostat 0.005 | [4] 0.016 | [5] -0.122

UBE2K (UniProt D6RDM7)
inactive: lapatinib -0.229 | tozasertib -0.023 | nilotinib -0.33 | [1] -0.058 | [2] 0.044 | tipifarnib -0.037 | [8] 0.108 | [5] 0.069

UBE2O (UniProt K7ES11)
inactive: lapatinib 0.045 | [6] 0.743 | gandotinib -0.301 | [7] -0.346 | [8] -0.149

TULP3 isoform 2 (UniProt O75386)
inactive: duvelisib -0.002 | nilotinib -0.194 | [1] 0.275 | dasatinib 0.004 | [2] 0.242 | [3] -0.016 | tipifarnib 0.113 | [5] -0.21

TUFT1 (UniProt Q9NNX1)
inactive: pictilisib 0.092 | [6] -0.084 | gandotinib 0.061 | tozasertib -0.087 | bafetinib -0.008 | [7] 0.086 | nilotinib -0.047 | [1] -0.013 | [2] 0.051 | tipifarnib 0.034 | [5] -0.012

TVP23C (UniProt Q96ET8)
inactive: crizotinib 0.018 | [6] -0.473 | gandotinib 0.144 | doramapimod 0.062 | [7] -0.033 | quisinostat -0.084 | [4] -0.023

UBL5 (UniProt Q9BZL1)
inactive: pictilisib -0.036 | crizotinib 0.072 | [6] -0.194 | duvelisib -0.042 | gandotinib 0.042 | tozasertib 0.138 | doramapimod 0.013 | bafetinib -0.034 | [7] 0.104 | nilotinib 0.028 | [1] 0.154 | dasatinib 0.036 | [2] 0.018 | [3] 0.027 | tipifarnib 0.031 | [4] -0.149 | [5] -0.013
active: quisinostat 0.341

TTYH3 isoform 4 (UniProt Q9C0H2)
inactive: [5] 0.09

UBXN8 (UniProt O00124)
inactive: crizotinib -0.263 | [6] -0.163 | duvelisib -0.117 | gandotinib -0.006 | tozasertib -0.002 | doramapimod 0.174 | [7] -0.056 | nilotinib -0.104 | [1] -0.031 | dasatinib 0.043 | [2] 0.098 | [3] -0.009 | quisinostat -0.388 | tipifarnib 0.041 | [4] -0.025 | [5] -0.064

UBE2J2 (UniProt Q8N2K1)
inactive: pictilisib -0.017 | crizotinib -0.096 | [6] -0.033 | duvelisib -0.064 | gandotinib -0.334 | tozasertib 0.015 | doramapimod 0.015 | bafetinib 0.103 | [7] -0.006 | nilotinib 0.015 | [1] -0.029 | dasatinib -0.038 | [2] -0.045 | [3] 0.048 | quisinostat 0.031 | tipifarnib -0.046 | [4] 0.127 | [5] -0.133

UBQLN1 (UniProt H0YEZ9)
inactive: [5] 0.042

UBXN7 (UniProt H7BYF4)
inactive: lapatinib -0.006 | nilotinib -0.229 | [1] 0.146 | [2] 0.196 | tipifarnib 0.044 | [8] -0.036

TUBA4A (UniProt C9JQ00)
inactive: pictilisib -0.2 | [6] -0.094 | gandotinib -0.142 | bafetinib -0.368 | [7] 0.228

UBA2 (UniProt K7ESK7)
inactive: lapatinib -0.099 | [8] -0.096

UBE2L5, A0A1B0GUS4
inactive: lapatinib -0.011 | [6] 0.054 | gandotinib 0.073 | [7] -0.001 | [8] 0.077 | [5] 0.091

UBAP2L isoform 1 (UniProt Q14157)
inactive: pictilisib -0.116 | crizotinib 0.376 | doramapimod -0.26 | bafetinib 0.56 | nilotinib -0.03 | [1] -0.081 | [2] 0.09 | quisinostat 0.613 | tipifarnib -0.067 | [4] 0.081

Retrieved one by one from the entries so far (2):
TYK2 (UniProt P29597)
inactive: crizotinib 0.082 | tozasertib -0.054 | doramapimod 0.086 | quisinostat 0.005 | [4] 0.016 | [5] -0.122

TUFT1 (UniProt Q9NNX1)
inactive: pictilisib 0.092 | [6] -0.084 | gandotinib 0.061 | tozasertib -0.087 | bafetinib -0.008 | [7] 0.086 | nilotinib -0.047 | [1] -0.013 | [2] 0.051 | tipifarnib 0.034 | [5] -0.012

Reference: the supplement of paper PMC10849652
